This is an account of results in PubChem BioAssay AID1487 (National Center for Advancing Translational Sciences (NCATS), 2009).

Some of the results follow. Further columns of the screen follow, without active or inactive calls. Most of these compounds were active or inconclusive in the main read-out, so they are no random draw. Potencies come from curve fits of mixed quality, noted in brackets.

The test can be described thus: qHTS Assay for Modulators of Lamin A Splicing. The settings on record: HeLa LMNA splicing GFP/RFP minigene ratio, 48 h. The procedure, abridged: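 S3 HeLa stable clones carrying a lamin A-EGFP splicing minigene plus DsRed2 were seeded at 600 cells/well in Opti-MEM with 2% FBS, pin-dosed and incubated 48 h at 37°C. Acumen cytometry (488 nm) gave the GFP/RFP total-intensity ratio.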

Setting [1] is: measured here: RFP viability control channel.
[2] abbreviates: measured here: GFP splicing reporter channel.

With `CCn1nnc(-c2ccc(N)cc2)n1`, the concentration at half-maximal activity (AC50) (commonly the concentration at which the activity in the assay is half-maximal) under setting [1] is 5.01 µM [falling, single point]. Take `CCOc1cc(/C=C2/C(=O)ON=C2C)ccc1OCc1ccccc1F`: the half-maximal activity concentration (AC50) is 25.1 µM [falling, single point] under setting [2] and 12.6 µM [falling, partial curve] under setting [1]. Take `CCOc1cccc2sc(Nc3nc4ccc(NC(C)=O)cc4s3)nc12`: the AC50 under setting [2] was 12.6 µM [rising, partial curve] and the half-maximal activity concentration (AC50) under setting [1] is 22.4 µM [rising, partial curve, poor fit]. `O=C(Nn1cnnc1)C1CCCN1S(=O)(=O)c1ccc(F)cc1` (stereo unspecified): the AC50 is, setting by setting: under setting [2], 0.0158 µM [falling, full curve, poor fit]; under setting [1], 0.02 µM [falling, full curve, poor fit]. On to `CCC(=O)N1c2ccccc2CC1C(=O)NCc1ccccc1C` (stereo unspecified), for which, under setting [1], the AC50 is 5.01 µM [rising, partial curve]. On the same count and under the same terms, next, `COc1ccc(OC)c(NC(=S)N(CCc2c(C)[nH]c3ccc(C)cc23)Cc2cccs2)c1`: 0.891 µM [rising, full curve]; `Cc1ccccc1NC(=S)NNC(=O)c1csc2c1CCC(C)C2` (stereo unspecified): 35.5 µM [rising, single point].

Turning to `CNc1nc(Oc2ccc(=O)n(C)n2)nc(N2CCOCC2)n1`, the half-maximal activity concentration (AC50) by setting is: under setting [2], 35.5 µM [falling, single point]; under setting [1], 22.4 µM [falling, partial curve, poor fit].

In the case of `CCCC(C)C(=O)Nc1ccc(F)c(Cl)c1` (stereo unspecified), under setting [2], the half-maximal activity concentration (AC50) is 6.31 µM [falling, single point]. As to `O=C(COc1cccnc1[N+](=O)[O-])NCc1ccco1`, the half-maximal activity concentration (AC50) under setting [1] is 0.0224 µM [rising, full curve, poor fit]. Regarding `Cc1nc(-c2ccccc2)sc1-c1nc(-c2cccnc2)ncc1S(=O)(=O)c1ccccc1`, the AC50 runs as follows: under setting [2], 14.1 µM [rising, single point]; under setting [1], 14.1 µM [rising, single point].

For the molecule `O=C(NCc1ccc(F)cc1)C(c1cccs1)N(C(=O)c1csnn1)C1CC1` (stereo unspecified), the concentration at half-maximal activity (AC50) under setting [2] is 17.8 µM [rising, single point]. Regarding `CCn1c(CSc2nncn2-c2ccc(OC)cc2)nc2cc(S(=O)(=O)N(C)C)ccc21`, under setting [1], the AC50 was 8.91 µM [rising, partial curve, poor fit]. As to `CN(C)NC(=S)NC(=O)C12CC3CC(CC(C3)C1)C2`, the concentration at half-maximal activity (AC50) under setting [1] was 1.12 µM [rising, full curve]. In the case of `COc1ccc(-n2nc([N+](=O)[O-])c(=NCCC3=CCCCC3)n2O)cc1`, the concentration at half-maximal activity (AC50) under setting [1] was 17.8 µM [rising, partial curve, poor fit]. Turning to `O=c1nc(N/N=C/c2ccccn2)cn[nH]1`, the AC50 under setting [1] is 11.2 µM [rising, partial curve].
